System: systolic pulmonary arterial pressure (sPAP) in subjects with PH-COPD
Assay: Phase 2 placebo-controlled clinical study of pulsed iNO in subjects with PH-COPD on LTOT (IK-7002-COPD-201; NCT01728220)
Assay type: in vivo, human
Source text: This study was a Phase 2, placebo-controlled, double-blind, randomized, two-part, dose-confirming clinical study characterizing the pharmacodynamic effects of pulsed iNO versus placebo in subjects with PH-COPD on LTOT (IK-7002-COPD-201; NCT01728220). The primary outcome of this study was change in systolic pulmonary arterial pressure (sPAP) from baseline after treatment with iNO (measured by 2D transthoracic echocardiography with Doppler). The secondary outcome was the occurrence of a decrease ≥5 mm Hg of partial pressure of oxygen in arterial blood (PaO2) from baseline after treatment with iNO.
Subjects also had tricuspid regurgitation velocity (TRV)≥2.9 m/s as measured by echocardiogram, a post-bronchodilatory forced expiratory volume in 1 second/forced vital capacity (FEV1/FVC)<0.7 and a FEV1<60% predicted. All subjects were at least 40 years old and were former smokers with at least 10 pack-years of tobacco cigarette smoking before study entry. All subjects also had been receiving LTOT for at least 3 months for at least 10 hours per day.
PH-COPD subjects were administered pulsed iNO at a dose of 3, 10, 15, 30 or 75 mcg/IBW kg/hr for at least 20 minutes, or received pulsed placebo (99.999% N2) for at least 20 minutes. The doses of 3 and 10 mcg/kg IBW/hr were administered from a mini-cylinder having 2,440 ppm NO and the doses of 15, 30 and 75 mcg/kg IBW/hr were administered from a mini-cylinder having 4,880 ppm NO.
The NO delivery device delivered gas comprising NO in a pulsatile manner at the beginning of the patient's breath. The minimum pulse volume is limited and for lower doses, can require 1 or more breaths to be skipped to maintain a constant dose in mcg/kg IBW/hr.

Q: Which “Average Respiration Rate during Treatment” value (pulsed iNO 10 mcg/kg IBW/hr) does the source give for `[N]=O` [iNO, nitric oxide] here?
A: 17.9 bpm

Q: What about the “Average Respiration Rate during Treatment” value (pulsed iNO 15 mcg/kg IBW/hr) of the same compound?
A: 19.2 bpm

Q: What about the “Average Respiration Rate during Treatment” value (pulsed iNO 30 mcg/kg IBW/hr) of the same compound?
A: 17.3 bpm

Q: And the “Average Respiration Rate during Treatment” value (pulsed iNO 75 mcg/kg IBW/hr)?
A: 17.8 bpm

From patent US20200384014A1, “Pulsed Administration Of Inhaled Nitric Oxide For The Treatment Of Pulmonary Hypertension” (Bellerophon Pulse Technologies LLC, priority 2017, published 2020)
